Results: US20160367664A1
No constants are given. Whether binding was seen depends on the method and setting. Some entries that bind do so weakly or less than the wild type.

By UniProt entry, the sequences of proteins in these tests, tags left out. Residues count along the entry.
UniProt P14784: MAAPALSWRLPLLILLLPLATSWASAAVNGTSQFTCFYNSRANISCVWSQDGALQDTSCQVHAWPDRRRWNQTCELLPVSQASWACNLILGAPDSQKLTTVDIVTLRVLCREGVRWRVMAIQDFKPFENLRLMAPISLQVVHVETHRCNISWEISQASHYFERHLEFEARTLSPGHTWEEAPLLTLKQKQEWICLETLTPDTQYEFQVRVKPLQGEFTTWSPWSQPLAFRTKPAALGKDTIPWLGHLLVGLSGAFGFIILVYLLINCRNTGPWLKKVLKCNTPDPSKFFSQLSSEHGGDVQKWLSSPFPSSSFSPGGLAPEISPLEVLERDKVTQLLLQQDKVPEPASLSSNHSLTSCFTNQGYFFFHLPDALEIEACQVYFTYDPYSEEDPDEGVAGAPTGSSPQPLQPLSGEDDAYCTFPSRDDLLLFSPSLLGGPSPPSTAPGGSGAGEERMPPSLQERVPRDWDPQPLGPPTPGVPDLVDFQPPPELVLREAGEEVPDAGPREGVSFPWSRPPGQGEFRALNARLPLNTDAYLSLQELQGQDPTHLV
UniProt P31785, residues 23-262: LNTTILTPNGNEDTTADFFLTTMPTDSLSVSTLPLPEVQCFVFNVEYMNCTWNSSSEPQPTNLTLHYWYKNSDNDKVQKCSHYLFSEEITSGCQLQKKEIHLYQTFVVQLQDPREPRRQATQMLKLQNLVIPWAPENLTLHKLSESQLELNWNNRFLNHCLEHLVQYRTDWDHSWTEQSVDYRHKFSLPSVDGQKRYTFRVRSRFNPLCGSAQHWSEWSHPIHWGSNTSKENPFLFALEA

Columns and labels:
[1] = biological target: recombinant human interleukin 2 receptor β (IL-2Rβ; CD122) (human) (UniProt P14784); experiment: ELISA on IL-2Rβ after heating the clone for 4 hours at the given temperature
[2] = biological target: recombinant human interleukin 2 receptor β (IL-2Rβ; CD122) (human) (UniProt P14784); experiment: ELISA before and after heating
[3] = biological target: recombinant human interleukin 2 receptor β (IL-2Rβ; CD122) (human) (UniProt P14784); experiment: ELISA on IL-2Rβ, scFv titrated
[4] = biological target: recombinant human interleukin 2 receptor β (IL-2Rβ; CD122) (human) (UniProt P14784); experiment: ELISA
[5] = biological target: recombinant human common γ chain (γc; CD132) (human) (UniProt P31785); experiment: ELISA
[6] = biological target: recombinant human common γ chain (γc; CD132) (human) (UniProt P31785); experiment: ELISA on γc (IL-2Rγc), scFv titrated

Binder	binding [1]	binding [2]	other results
P2C4 (antibody, V domains shown) VH: EVQLVQSGAEVKKPGSSVKVSCKASGYTFTNYYMHWVRQAPGQGLEWMGAIMPSRGGTSYPQKFQGRVTMTGDTSTSTVYMELSSLRSEDTAVYYCARGEYYYDSSGYYYWGQGTLVTVSS VL: QSALTQPASVSGSPGQSIAISCTGTSSDIGHYDFVSWYQQHPGTAPKLIIYDINNRPSGISNRFSGSKSDNMASLTISGLQPEDEADYYCSAYTSSDTLVFGGGTKLT	binds	binds	–
P2C4_FW2 single chain antibody (scFv) scFv: EVQLVQSGAEVKKPGASVKVSCKASGYTFTNYYMHWVRQAPGQGLEWMGAIMPSRGGTSYPQKFQGRVTITADKSTSTAYMELSSLRSEDTAVYYCARGEYYYDSSGYYYWGQGTLVTVSSGGGGSGGGGSGGGGSQSVLTQPPSVSGAPGQRVTISCTGTSSDIGHYDFVSWYQQLPGTAPKLLIYDINNRPSGVPDRFSGSKSGTSASLAITGLQAEDEADYYCSAYTSSDTLVFGGGTKLTVL	–	–	binding [3]: binds; binding [4]: binds
P2C4_E3 (antibody) scFv: EVQLVQSGAEVKKPGSSVKVSCKASGYTFTNYYIHWVRQAPGQGLEWMGAIMPSRGGTSYPQKFQGRVTMTGDTSTSTVYMELNSLRSEDTAVYYCARGEYYYDSSGYYYWGQGTLVTVSSGGGGSGGGGSGGGGSQSALTQPASVSGSPGQSIAISCTGTSSDIGHYDFVSWYQQHPGTAPKLIIYDINNRPSGISNRFSGSKSDNMASLTISGLQPEDEADYYCSAYTSSDTVVFGGGTKLTVLAAAHHHHHH	binds	binds	–
P2C4_E8 (antibody) scFv: EVQLVQSGAEVKKPGSSVKVSCKASGYTFTNYYMHWVRQAPGQGLEWMGAIMPSRGGTSYPQKFQGRVTMTGDTSTSTVYMELSSLRSEDTAVYYCARGEYYYDSSGYYYWGPGTLVTVSSGGGGSGGGGSGGGGSQSALTQPASVSGSPGQSIAISCTGTSSDIGHYDFVSWYQQHPGTAPKLIIYDINNRPSGISNRFSGSKSDNMASLTISGLQPEDEADYYCSAYTSSDTVVFGGGTKLTVLAAAHHHHHH	binds	binds	–
P2C4_C1D10 (antibody) scFv: EVQLVQSGAEVKKPGSSVKVSCKASGYTFTNYYMHWVRQAPGQGLEWMGAIMPSRGGTSYPQKFQGRVTMTGDTSTSTVYMELSSLRSEDTAVYYCARGEYYYDSSGYYYWGQGTPVTVSSGGGGSGGGGSGGGGSQSALTQPASVSGSPGQSIAISCTGTSSDIGDYDFVSWYQQHPGTAPKLIIYDINNRPSGISNRFSGSKSDNMASLTISGLQPEDEADYYCSAYTSSDTVVFGGGTKLTVL	binds	binds	–
P1A3_FW2 single chain antibody (scFv) scFv: EVQLVESGGGLVQPGGSLRLSCAASGGSFSGYYWSWVRQAPGKGLEWVSEINHSGSTNYNPSLKSRFTISRDNSKNTLYLQMNSLRAEDTAVYYCARSPGGYSGGYFQHWGQGTLVTVSSGGGGSGGGGSGGGGSDIQMTQSPSSLSASVGDRVTITCRSSQSLLHSNGYNYLDWYQQKPGKAPKLLIYLGSNRDSGVPSRFSGSGSGTDFTLTISSLQPEDFATYYCMQGTHWPWTFGQGTKVEIK	–	–	binding [5]: binds; binding [6]: binds

Second part, led by results:

binding [1]	binding [2]	Binder	other results
binds	binds	P2C4_H2 (antibody) scFv: EVQLVQSGAEVKKPGSSVKVSCKASGYTFSNYYMHWVRQAPGQGLEWIGAIMPSRGGTSYPQKFQGRVTMTGDTSTSTVYMELSSLRSEDTAVYYCARGEYYYDSSGYYYWGQGTLVTVSSGGGGSGGGGSGGGGSQSALTQPASVSGSPGQSIAISCTGTSSDIGHYDFVSWYQQHPGTAPKLIIYDINNRPSGISNRFSGSKSDNMASLTISGLQPEDEADYYCSAYTSSDTVVFGGGTKLTVLAAAHHHHHH	–
binds	binds	P2C4_G11 (antibody) scFv: EVQLVQSGAEVKKPGSSVKVSCKASGYTFTNYYMHWVRQAPGQGLEWMGAIMPSRGGTSYPQKFQGRVTMTGDTSTSTVYMELSNLRSEDTAVYYCARGEYYYDSSGYYYWGQGTLVTVSSGGGGSGGGGSGGGGSQSALTQPASVSGSPGQSIAISCTGTSSDIGHYDFVSWYQQHPGTAPKLIIYDINNRPSGISNRFSGSKSDNMASLTISGLQPEDEADYYCSAYTSSDTVVFGGGTKLTVLAAAHHHHHH	–
binds	binds	P2C4_H1 (antibody) scFv: EVQLVQSGAEVKKPGSSVKVSCKASGYTFTNYYMHWVRQAPGQGLEWMGAIMPSRGGTSYPQKFQGRVTMTGDTSTSTVYMELSSLRSEDTAVYYCARGEYYYDSSGYYYWGQGTLVNVSSGGGGSGGGGSGGGGSQSALTQPASVSGSPGQSIAISCTGTSSDIGHYDFVSWYQQHPGTAPKLIIYDINNRPSGISNRFSGSKSDNMASLTISGLQPEDEADYYCSAYTSSDTVVFGGGTKLTVLAAAHHHHHH	–
binds	binds	P2C4_G2 (antibody) scFv: EVQLVQSGAEVKKPGSSVKVSCKASGYTFTNYYMHWVRQAPGQGLEWMGAIMPSRGGTSYPQKFQGRVTMTGDTSTSTVYMELSSLRTEDTAVYYCARGEYYYDSSGYYYWGQGTLVTVSSGGGGSGGGGSGGVGSQSALTQPASVSGSPGQSIAISCTGTSSDIGHYDFVSWYQQHPGTAPKLIIYDINNRPSGISNRFSGSKSDNMASLTISGLQPEDEADYYCSAYTSSDTVVFGGGTKLTVLAAAHHHHHH	–
